Data published in PubChem BioAssay AID504444 (National Center for Advancing Translational Sciences (NCATS), 2011).
Values joined by “and” are separate entries in the source; they are usually repeats but may differ in a detail not shown here. Identical values can stand only once. Screen size: about 360,000 compounds; about 7,500 (2.1%) were called active. The inconclusive results got no clear call from the source; some entries with a clear call stand among them for comparison. Calls come from the whole dose curve; as a rule, active = well fitted inhibition curve with a large enough effect; inconclusive = small, poorly fitted or top-dose-only effect, or effect the other way; inactive = flat fitted curve, though single readings scatter. Potencies of inconclusive entries are doubtful fits and often do not repeat.

Test: Nrf2 qHTS screen for inhibitors; note: nearly all actives have a fitted effect of over 60% in size
Conditions: A549 ARE-Fluc reporter, luciferase luminescence, 18-24 h; activity change, negative = inhibition: at 46 µM (top of the series)
How it was run: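 Two sequential reads on A549 ARE_Fluc cells exposed to compound for 18-24 h: a CellTiter-Fluor fluorescence read for viability, then a luciferase luminescence read for Nrf2/ARE activity.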
% is set by controls: 0 for no effect and ±100 for the full control effect; potency is the fitted concentration of half-maximal effect.

| SMILES | Potency | activity change, negative = inhibition |
| --- | --- | --- |
| NC(=S)N/N=C/c1ccc(C23CC4CC(CC(C4)C2)C3)cc1 | inconclusive: 14.6 µM [activator, partial curve] | – |
| CCCCCCCCCCCCCCCC[N+](C)(C)CCN(Cc1ccc(OC)cc1)c1ncccn1 | active: 20.6 µM | – |
| CCOC(=O)c1ccccc1NC(=O)Cn1cc(C(=O)c2cccc(OC)c2)c(=O)c2ccc(C)nc21 | inconclusive: 11.6 µM [activator, partial curve, poor fit] | – |
| CC(C)(C)n1nnnc1C(c1cccs1)N(Cc1cccnc1)Cc1ccccc1Cl (stereo not given) | inconclusive: 29.1 µM [falling, single point] | – |
| CCSc1nsc(NC(=O)Nc2ccc(F)cc2F)n1 | inconclusive: 29.1 µM [falling, single point] | – |
| CCn1c(/C=C/c2cc(Br)ccc2O)nc2ccccc2c1=O | – | inactive: 26.1% |
| CCCCOc1ccc(C(=O)Oc2cccnc2)cc1 | – | inactive: -5.76% |
| CC(=O)N1c2ccc(S(=O)(=O)N3CCC(C(=O)NC4CCCC(C)C4C)CC3)cc2CC1C (stereo not given) | inconclusive: 16.4 µM [falling, partial curve, poor fit] | – |
| Cn1nnnc1Sc1ncnc2scc(Br)c12 | inactive | – |
| COc1ccc(N2C(=O)CN(Cc3cc(OC)c(OC)c(OC)c3)C2=S)cc1 | inconclusive: 18.4 µM [falling, single point] | – |
| COCCc1nn2c(=O)cc(COC(=O)c3ccc4c(c3)OCO4)nc2s1 | inconclusive: 7.31 µM [activator, partial curve, poor fit] | – |
| CCOc1ccc(C(=O)NCc2ccc3c(c2)OCO3)cc1OCC | – | inactive: -19.5% |
| Cc1ccc(Nc2nc(N)nc(CN3CCN(c4ccccc4F)CC3)n2)cc1 | inconclusive: 6.51 µM [falling, partial curve, poor fit] | – |
| O=C1c2cccc(Cl)c2C(=O)N1c1ccccn1 | inconclusive: 3.66 µM [activator, full curve, poor fit] | – |
| CC(=O)Nc1sc(/C(C#N)=C\c2cccc(Cl)c2)nc1-c1ccc(C)cc1 | – | inactive: -26% |
| C/C(=N\NC(=O)c1cccc([N+](=O)[O-])c1)c1cccs1 | inconclusive: 2.59 µM [activator, full curve] | – |
| Cc1ccc(NC2=C(c3ccc(C(F)(F)F)cc3)C(=O)c3ccccc32)cc1C | inconclusive: 20.6 µM [activator, partial curve] | – |
| CCN(CC)C(=O)CSc1nnc(C2CCCCC2)o1 | inconclusive: 16.4 µM [activator, partial curve, poor fit] | – |
| Cc1ccc(-c2cc(C(=O)NCc3cnn(C)c3C)c3cc(Br)ccc3n2)cc1 | inactive and inconclusive: 7.31 µM [activator, partial curve, poor fit] | – |
| CC1(C)OC2C(CO)OC(n3cnc4c(=S)nc[nH]c43)C2O1 (stereo not given) | – | inactive: -22.3% |
| Cc1ccc2cc(/C=N/NC(=O)[C@@H]3CCCN3)c(Cl)nc2c1 | inconclusive: 23.1 µM [activator, single point] | – |
| Cc1ccc(NC(=O)c2cc(C(C)(C)C)nn2Cc2ccccc2)cc1 | inconclusive: 29.1 µM [falling, single point] | – |

| SMILES | Potency | activity change, negative = inhibition |
| --- | --- | --- |
| Cc1c(C(C)C)c(=O)n(-c2ccc(S(=O)(=O)NC(C)C)cc2)n1C | active: 18.4 µM | – |
| N#CCc1ccc(NC(=O)/C=C/c2ccc([N+](=O)[O-])o2)cc1 | – | inactive: 2.12% |
| Cc1nc(SCC(=O)NC(C)(C#N)C2CC2)c2c(-c3cccs3)csc2n1 (stereo not given) | inconclusive: 20.6 µM [falling, single point] | – |
| CS(=O)(=O)c1ccc(CNC(=O)C2(C(F)(F)F)CC(CCCO)CCCO2)cc1 (stereo not given) | inconclusive: 6.51 µM [falling, partial curve, poor fit] and inconclusive: 2.31 µM [falling, partial curve, poor fit] | – |
| CC1CCN(C(=O)Cn2nnc(-c3ccccc3)n2)CC1 | inconclusive: 4.11 µM [activator, full curve, poor fit] | – |
| CCc1nc(CN(C)C(=O)C2CCC(=O)N(CCc3cccc(F)c3)C2)no1 (stereo not given) | inconclusive: 14.6 µM [activator, single point] | – |
| CCN(Cc1ccccc1)S(=O)(=O)c1ccc(C(=O)N(CCCN(C)C)c2nc3cc4c(cc3s2)OCCO4)cc1 | inconclusive: 3.26 µM [activator, full curve, poor fit] | – |
| CCCCOc1ccc(C(O)(CC)CCN2CCOCC2)cc1 (stereo not given) | – | inactive: -13.3% |
| CCS(=O)(=O)N1CCc2cc(C(=O)NCc3ccc(OC)cc3)ccc21 | inconclusive: 29.1 µM [falling, single point] | – |
| C=C1CC[C@@H]2[C@](C)(CO)[C@H](O)CC[C@@]2(C)[C@@H]1/C=C/C1=CCOC1=O | inconclusive: 20.6 µM [falling, single point] | – |
| Cc1ccc(CNC(=O)c2cc(COc3c(F)cccc3F)on2)s1 | – | inactive: -3.21% |
| Cn1cc(S(=O)(=O)c2cccc(Cl)c2)c(=O)c2cc(F)c(N3CCCCCC3)cc21 | inconclusive: 25.9 µM [falling, partial curve, poor fit] | – |
| C=CCNc1nc(N)c([N+](=O)[O-])c(NCc2ccccc2)n1 | inconclusive: 29.1 µM [activator, single point] | – |
| CCCCN1C(=S)NC[C@@H]1Cc1cccc2ccccc12 | inconclusive: 0.58 µM [activator, partial curve] | – |
| CN1/C(=C\C=N\NC(=O)c2ccc(O)cc2)C(C)(C)c2ccccc21 | inconclusive: 25.9 µM [falling, partial curve, poor fit] | – |
| O=C(O)/C=C/c1cccc(OCc2ccccc2)c1 | inconclusive: 20.6 µM [activator, single point] | – |
| CC1=C(CC(=O)c2ccc(Cl)cc2)C(=O)c2ccccc2C1=O | inconclusive: 1.3 µM [falling, partial curve, poor fit] | – |
| COc1ccc(C(C)=O)cc1CSc1nc2ccccc2c(=O)n1-c1cccc(C)c1 | inconclusive: 16.4 µM [falling, partial curve] | – |
| Cc1nn(C)cc1C(C(=O)NC1CCCCC1)N(C(=O)Cc1cccs1)c1ccc(C(C)C)cc1 (stereo not given) | inconclusive: 3.26 µM [falling, partial curve, poor fit] | – |
| CCN(CC)c1ccc(/C=N/NC(=O)c2ccoc2C)cc1 | inconclusive: 0.231 µM [activator, full curve, poor fit] | – |
| CCn1c(=O)cc(SCC(=O)Nc2ccc(Cl)cc2)c2ccccc21 | inconclusive: 9.2 µM [falling, partial curve] | – |
| CN(C(=O)COC(=O)c1ccc2ccccc2n1)c1ccccc1 | inconclusive: 4.11 µM [activator, full curve, poor fit] | – |

| SMILES | Potency | activity change, negative = inhibition |
| --- | --- | --- |
| Cc1ccc(F)c(NC(=O)c2ccc(Cn3cc(Cl)cn3)cc2)c1 | inconclusive: 16.4 µM [falling, partial curve, poor fit] | – |
| CCOc1ccccc1-c1nc(C(N)=O)c2[nH]c(=O)n(-c3cccc(C)c3)c2n1 | inconclusive: 18.4 µM [falling, partial curve] | – |
| CSc1ncccc1C(=O)OCC(=O)c1ccccc1Br | inconclusive: 1.3 µM [falling, partial curve, poor fit] | – |
| CCOC(=O)CSC1=C(C#N)C(c2ccc3c(c2)OCO3)CC(=O)N1 (stereo not given) | inconclusive: 29.1 µM [falling, single point] | – |
| Cc1nn(C)c(C)c1CN(C)C(=O)c1cnn2c1NC(c1ccccc1)CC2C(F)(F)F (stereo not given) | inconclusive: 14.6 µM [falling, partial curve, poor fit] | – |
| O=C(Nc1ccc(Cl)cc1)C1CCN(c2nc3ccccc3nc2C(F)(F)F)CC1 | inconclusive: 2.91 µM [falling, single point] | – |
| Cc1nc2c(-c3ccc(Cl)cc3)c(C)[nH]n2c(=O)c1Cc1ccccc1 | active: 14.6 µM | – |
| N#C/C(N=Nc1ccccc1O)=N\Nc1ccccc1O | inconclusive: 32.6 µM [falling, single point] | – |
| COc1cc(C(=O)Nc2nc(-c3cccs3)cs2)cc(OC)c1OC | inconclusive: 20.6 µM [falling, single point] | – |
| COc1ccc(NS(=O)(=O)c2cccc(NC(=O)c3cnccn3)c2)cc1Br | inconclusive: 20.6 µM [falling, single point] | – |
| CCCCOc1ccc(C(=O)OCC(=O)N2CCOCC2)cc1 | inconclusive: 29.1 µM [falling, single point] | – |
| O=C(Nc1nncs1)c1cccc(S(=O)(=O)N2CCc3ccccc32)c1 | inconclusive: 29.1 µM [falling, single point] | – |
| CC(C)Oc1c(Br)cc(Br)cc1/C=N/NC(N)=S | inconclusive: 23.1 µM [falling, single point] | – |
| COc1cc(/C=C2\SC(=O)N(c3ccc(O)cc3)C2=O)cc(OC)c1OC | – | inactive: -21.7% |
| Cn1cc(S(=O)(=O)c2ccc(Cl)cc2)c(=O)c2cc(F)c(N3CCCCCC3)cc21 | active: 16.4 µM | – |
| O=C(c1cncc(Br)c1)N1CCN(c2ccc([N+](=O)[O-])cc2)CC1 | – | inactive: -24.1% |
| Fc1ccc(-c2nc(Nc3ccc(F)c(Cl)c3)nc3c2COc2ccccc2-3)cc1 | inconclusive: 13 µM [falling, partial curve, poor fit] | – |
| Cc1cccnc1NCC(O)COc1ccccc1 (stereo not given) | – | inactive: -2.91% |
| O=C(CSc1nc2ccccc2c(=O)n1NC(=O)c1ccccc1)c1ccc(Cl)cc1 | – | inactive: 2.78% |
| Cc1ccc(C(=O)Nc2sc3c(c2C(=O)O)CCCC3)o1 | inconclusive: 6.51 µM [falling, full curve] | – |
| CCOc1ccc(C2CC(=O)n3nc(-c4ccc(C)cc4)nc3S2)cc1OC (stereo not given) | – | inactive: 3.53% |
